{
  "source": "patent US7592309B2",
  "about": "“Method of using a peptide having analgesic and antitumor activity from scorpion” (priority 2001, dated 2009)",
  "system": "writhing response of mouse (acetic acid writhing model)",
  "details": "in vivo, iv",
  "procedure": "The above samples were administrated by stomach infusion in a dose of 0.1 mg/kg weight to 16.0 mg/kg weight. […] In the mouse heat plate model, the above samples were administrated by intravenous injection in a dose of 0.1 mg/kg weight to 16.0 mg/kg weight. […] For example, the peptide of SDS-PAGE single band obtained in example 1 and 2 were injected intravenously at 0.6 mg/kg weight.",
  "data": [
    {"compound": "CN1CC[C@]23c4c5ccc(O)c4O[C@H]2[C@@H](O)C=C[C@H]3[C@H]1C5", "note": "[morphine, reference compound]", "values": [
      {"measurement": "ED50 (median effective dose)", "result": 16.0, "unit": "mg/kg weight"}
    ]}
  ]
}
